{
  "sequences": {"note": "Amino acid sequences for entries named in this document (tags omitted). Residues count along the entry.", "UniProt P09038, residues 134-287": "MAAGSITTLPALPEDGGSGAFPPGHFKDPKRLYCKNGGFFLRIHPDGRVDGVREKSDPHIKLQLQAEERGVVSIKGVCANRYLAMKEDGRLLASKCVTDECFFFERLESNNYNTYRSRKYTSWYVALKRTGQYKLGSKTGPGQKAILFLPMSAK", "UniProt P19338, residues 284-707": "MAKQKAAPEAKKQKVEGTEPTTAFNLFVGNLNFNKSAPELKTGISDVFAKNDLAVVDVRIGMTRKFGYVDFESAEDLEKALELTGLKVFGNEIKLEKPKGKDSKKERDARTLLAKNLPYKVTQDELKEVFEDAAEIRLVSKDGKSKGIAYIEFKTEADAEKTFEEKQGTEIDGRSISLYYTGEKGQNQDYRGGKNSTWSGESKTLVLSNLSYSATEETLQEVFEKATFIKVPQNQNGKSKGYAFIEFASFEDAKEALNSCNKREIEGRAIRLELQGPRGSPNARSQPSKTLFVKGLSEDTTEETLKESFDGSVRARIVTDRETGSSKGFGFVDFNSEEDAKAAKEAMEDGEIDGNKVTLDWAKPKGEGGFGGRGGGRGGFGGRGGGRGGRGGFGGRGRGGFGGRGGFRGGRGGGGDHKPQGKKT"},
  "source": "paper PMC3942467",
  "molecular_target": "biotinylated FGF2 (Biot-FGF2) (UniProt P09038)",
  "test": "pull-down; 73 pmol of SBP- or biotin-labelled FGF with an equal molar amount of recombinant nucleolin-C, Streptavidin-coated Dynabeads; blot with anti-nucleolin; for Biot-FGF1 with or without heparin; both purified",
  "note": "No constants are given. Whether binding was seen depends on the method and setting. Some binding calls cover weakened binding; strength is not graded here.",
  "data": [
    {"substance": "recombinant C-terminal fragment (residues 284-707) of nucleolin (nucleolin-C) (from UniProt P19338 284-707) (domain or fragment)", "values": [
      {"measurement": "binding", "value": "binds"}
    ]}
  ]
}
